Earlier results as cited in US20220401509A1, “Composition For Improving Mental State, Production Method For Composition For Improving Mental State, And Use Of Fruit Of Eggplant For Improving Mental State” (SHINSHU UNIVERSITY, priority 2019, published 2022).
At least one compound was matched to its structure with a doubt left.

Tested on: spontaneously hypertensive rats (SHRs)
Conditions: purified, single oral dose to SHR

Compound: CC(=O)OCC[N+](C)(C)C [ACh, Acetylcholine]
- antihypertensive effect: had an antihypertensive effect
